These are yes or no findings as the source states them, for the method shown. Binding seen in cells or lysates may run through a third protein. These calls come from enrichment with a bait or labelling near it, and not all partners need be listed.

Protein sequences, listed by entry. Tags and fused reporters are not part of them.
UniProt F6ZDS4: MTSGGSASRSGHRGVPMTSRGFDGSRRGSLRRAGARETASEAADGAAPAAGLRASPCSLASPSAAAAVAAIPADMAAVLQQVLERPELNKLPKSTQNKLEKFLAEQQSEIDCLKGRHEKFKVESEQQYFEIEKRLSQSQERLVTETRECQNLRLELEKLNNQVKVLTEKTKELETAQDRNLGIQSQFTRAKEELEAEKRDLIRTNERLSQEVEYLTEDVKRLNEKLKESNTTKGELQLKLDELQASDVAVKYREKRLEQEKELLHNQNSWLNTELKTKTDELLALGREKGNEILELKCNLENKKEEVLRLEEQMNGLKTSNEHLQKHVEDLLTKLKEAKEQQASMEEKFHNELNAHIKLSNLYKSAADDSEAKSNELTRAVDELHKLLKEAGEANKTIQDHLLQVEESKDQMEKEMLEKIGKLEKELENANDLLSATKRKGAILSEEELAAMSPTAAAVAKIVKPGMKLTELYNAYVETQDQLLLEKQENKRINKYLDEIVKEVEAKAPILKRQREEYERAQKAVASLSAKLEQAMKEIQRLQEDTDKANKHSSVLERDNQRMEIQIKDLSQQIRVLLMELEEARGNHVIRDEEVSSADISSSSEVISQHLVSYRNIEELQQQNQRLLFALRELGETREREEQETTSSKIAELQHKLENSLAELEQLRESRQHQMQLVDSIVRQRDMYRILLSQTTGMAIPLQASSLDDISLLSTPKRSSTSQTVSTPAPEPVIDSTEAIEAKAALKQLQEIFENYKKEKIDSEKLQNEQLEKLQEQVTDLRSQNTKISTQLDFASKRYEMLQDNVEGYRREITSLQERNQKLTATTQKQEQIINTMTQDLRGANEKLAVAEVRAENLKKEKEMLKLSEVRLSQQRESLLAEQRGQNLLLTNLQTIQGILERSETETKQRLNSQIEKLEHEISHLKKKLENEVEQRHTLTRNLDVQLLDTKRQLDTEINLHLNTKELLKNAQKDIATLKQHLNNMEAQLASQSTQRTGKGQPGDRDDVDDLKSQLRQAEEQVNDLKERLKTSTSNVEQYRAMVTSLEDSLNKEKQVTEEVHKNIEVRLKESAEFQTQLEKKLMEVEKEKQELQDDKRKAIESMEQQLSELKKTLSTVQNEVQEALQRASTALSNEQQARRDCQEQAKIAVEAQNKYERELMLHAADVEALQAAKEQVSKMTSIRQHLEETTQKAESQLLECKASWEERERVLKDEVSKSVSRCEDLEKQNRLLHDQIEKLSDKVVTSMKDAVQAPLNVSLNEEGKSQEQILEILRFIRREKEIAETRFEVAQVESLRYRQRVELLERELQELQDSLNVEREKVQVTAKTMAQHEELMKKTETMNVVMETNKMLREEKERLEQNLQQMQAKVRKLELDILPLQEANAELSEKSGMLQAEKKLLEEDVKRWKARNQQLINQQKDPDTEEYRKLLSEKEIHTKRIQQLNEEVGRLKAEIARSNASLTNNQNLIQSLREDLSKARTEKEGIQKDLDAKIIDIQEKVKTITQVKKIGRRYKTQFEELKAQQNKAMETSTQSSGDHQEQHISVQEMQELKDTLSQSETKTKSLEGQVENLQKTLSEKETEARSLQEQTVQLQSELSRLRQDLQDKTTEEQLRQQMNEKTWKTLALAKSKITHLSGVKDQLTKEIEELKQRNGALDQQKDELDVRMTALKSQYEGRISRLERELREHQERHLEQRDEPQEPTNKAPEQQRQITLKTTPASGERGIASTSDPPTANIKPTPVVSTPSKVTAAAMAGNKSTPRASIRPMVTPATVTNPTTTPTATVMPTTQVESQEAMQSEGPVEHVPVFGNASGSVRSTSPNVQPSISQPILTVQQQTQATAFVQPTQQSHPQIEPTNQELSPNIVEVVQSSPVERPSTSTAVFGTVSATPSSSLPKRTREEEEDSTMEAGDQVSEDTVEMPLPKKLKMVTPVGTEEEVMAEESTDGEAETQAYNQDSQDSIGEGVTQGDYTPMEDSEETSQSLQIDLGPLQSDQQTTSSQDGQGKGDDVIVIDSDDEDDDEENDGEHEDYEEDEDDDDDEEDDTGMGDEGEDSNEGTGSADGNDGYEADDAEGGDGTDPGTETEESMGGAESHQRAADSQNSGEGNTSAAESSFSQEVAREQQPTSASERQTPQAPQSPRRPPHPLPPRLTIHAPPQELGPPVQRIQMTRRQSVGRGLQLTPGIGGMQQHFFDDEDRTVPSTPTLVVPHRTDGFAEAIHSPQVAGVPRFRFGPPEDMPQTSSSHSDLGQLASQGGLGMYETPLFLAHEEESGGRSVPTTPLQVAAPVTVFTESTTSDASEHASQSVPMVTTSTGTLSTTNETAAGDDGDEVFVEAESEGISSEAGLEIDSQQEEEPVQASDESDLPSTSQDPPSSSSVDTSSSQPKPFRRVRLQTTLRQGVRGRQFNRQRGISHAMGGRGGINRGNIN
UniProt P11440: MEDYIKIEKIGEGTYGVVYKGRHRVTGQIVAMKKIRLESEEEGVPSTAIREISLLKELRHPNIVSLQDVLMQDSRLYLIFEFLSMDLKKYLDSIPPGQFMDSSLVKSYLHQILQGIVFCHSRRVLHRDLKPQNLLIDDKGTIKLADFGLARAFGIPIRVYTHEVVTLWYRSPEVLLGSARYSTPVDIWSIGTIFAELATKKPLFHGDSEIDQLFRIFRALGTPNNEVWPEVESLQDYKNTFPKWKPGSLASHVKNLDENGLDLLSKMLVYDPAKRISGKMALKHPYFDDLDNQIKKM
UniProt P63082: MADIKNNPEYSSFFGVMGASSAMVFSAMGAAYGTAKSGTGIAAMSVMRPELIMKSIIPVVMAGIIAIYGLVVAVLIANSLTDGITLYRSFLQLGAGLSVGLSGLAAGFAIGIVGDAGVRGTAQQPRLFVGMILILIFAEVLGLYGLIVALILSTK
UniProt P30658: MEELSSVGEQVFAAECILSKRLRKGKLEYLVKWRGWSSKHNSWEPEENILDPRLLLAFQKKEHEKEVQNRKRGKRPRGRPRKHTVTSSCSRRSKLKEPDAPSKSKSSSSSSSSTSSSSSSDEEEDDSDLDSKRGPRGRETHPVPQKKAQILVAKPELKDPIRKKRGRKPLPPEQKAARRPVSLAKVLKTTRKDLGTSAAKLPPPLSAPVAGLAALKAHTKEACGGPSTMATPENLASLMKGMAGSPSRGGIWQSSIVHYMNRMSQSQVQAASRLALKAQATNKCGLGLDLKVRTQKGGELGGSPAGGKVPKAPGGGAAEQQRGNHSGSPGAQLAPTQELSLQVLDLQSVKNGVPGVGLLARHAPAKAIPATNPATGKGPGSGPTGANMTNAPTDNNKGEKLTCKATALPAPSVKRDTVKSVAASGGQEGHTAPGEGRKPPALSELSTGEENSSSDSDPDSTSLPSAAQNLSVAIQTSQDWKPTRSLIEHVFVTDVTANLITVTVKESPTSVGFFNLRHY
UniProt P80205: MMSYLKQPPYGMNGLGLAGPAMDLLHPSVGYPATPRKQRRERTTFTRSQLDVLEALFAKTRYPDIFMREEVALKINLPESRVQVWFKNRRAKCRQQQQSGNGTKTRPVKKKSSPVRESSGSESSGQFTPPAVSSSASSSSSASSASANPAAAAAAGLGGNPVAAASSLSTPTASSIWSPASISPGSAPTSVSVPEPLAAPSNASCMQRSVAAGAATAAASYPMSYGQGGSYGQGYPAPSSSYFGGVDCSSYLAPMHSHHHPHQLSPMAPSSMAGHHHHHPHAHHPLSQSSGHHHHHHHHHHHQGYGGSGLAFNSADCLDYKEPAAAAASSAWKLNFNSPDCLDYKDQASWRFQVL
UniProt P48432: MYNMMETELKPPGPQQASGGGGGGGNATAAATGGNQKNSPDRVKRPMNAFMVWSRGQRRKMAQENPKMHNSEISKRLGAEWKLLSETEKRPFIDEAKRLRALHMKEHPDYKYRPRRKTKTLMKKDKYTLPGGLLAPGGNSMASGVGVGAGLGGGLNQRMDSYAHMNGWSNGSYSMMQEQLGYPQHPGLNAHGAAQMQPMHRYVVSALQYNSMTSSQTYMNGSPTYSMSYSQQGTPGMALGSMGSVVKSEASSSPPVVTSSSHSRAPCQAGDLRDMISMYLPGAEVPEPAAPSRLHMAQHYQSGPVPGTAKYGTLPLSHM
UniProt Q3TKT4: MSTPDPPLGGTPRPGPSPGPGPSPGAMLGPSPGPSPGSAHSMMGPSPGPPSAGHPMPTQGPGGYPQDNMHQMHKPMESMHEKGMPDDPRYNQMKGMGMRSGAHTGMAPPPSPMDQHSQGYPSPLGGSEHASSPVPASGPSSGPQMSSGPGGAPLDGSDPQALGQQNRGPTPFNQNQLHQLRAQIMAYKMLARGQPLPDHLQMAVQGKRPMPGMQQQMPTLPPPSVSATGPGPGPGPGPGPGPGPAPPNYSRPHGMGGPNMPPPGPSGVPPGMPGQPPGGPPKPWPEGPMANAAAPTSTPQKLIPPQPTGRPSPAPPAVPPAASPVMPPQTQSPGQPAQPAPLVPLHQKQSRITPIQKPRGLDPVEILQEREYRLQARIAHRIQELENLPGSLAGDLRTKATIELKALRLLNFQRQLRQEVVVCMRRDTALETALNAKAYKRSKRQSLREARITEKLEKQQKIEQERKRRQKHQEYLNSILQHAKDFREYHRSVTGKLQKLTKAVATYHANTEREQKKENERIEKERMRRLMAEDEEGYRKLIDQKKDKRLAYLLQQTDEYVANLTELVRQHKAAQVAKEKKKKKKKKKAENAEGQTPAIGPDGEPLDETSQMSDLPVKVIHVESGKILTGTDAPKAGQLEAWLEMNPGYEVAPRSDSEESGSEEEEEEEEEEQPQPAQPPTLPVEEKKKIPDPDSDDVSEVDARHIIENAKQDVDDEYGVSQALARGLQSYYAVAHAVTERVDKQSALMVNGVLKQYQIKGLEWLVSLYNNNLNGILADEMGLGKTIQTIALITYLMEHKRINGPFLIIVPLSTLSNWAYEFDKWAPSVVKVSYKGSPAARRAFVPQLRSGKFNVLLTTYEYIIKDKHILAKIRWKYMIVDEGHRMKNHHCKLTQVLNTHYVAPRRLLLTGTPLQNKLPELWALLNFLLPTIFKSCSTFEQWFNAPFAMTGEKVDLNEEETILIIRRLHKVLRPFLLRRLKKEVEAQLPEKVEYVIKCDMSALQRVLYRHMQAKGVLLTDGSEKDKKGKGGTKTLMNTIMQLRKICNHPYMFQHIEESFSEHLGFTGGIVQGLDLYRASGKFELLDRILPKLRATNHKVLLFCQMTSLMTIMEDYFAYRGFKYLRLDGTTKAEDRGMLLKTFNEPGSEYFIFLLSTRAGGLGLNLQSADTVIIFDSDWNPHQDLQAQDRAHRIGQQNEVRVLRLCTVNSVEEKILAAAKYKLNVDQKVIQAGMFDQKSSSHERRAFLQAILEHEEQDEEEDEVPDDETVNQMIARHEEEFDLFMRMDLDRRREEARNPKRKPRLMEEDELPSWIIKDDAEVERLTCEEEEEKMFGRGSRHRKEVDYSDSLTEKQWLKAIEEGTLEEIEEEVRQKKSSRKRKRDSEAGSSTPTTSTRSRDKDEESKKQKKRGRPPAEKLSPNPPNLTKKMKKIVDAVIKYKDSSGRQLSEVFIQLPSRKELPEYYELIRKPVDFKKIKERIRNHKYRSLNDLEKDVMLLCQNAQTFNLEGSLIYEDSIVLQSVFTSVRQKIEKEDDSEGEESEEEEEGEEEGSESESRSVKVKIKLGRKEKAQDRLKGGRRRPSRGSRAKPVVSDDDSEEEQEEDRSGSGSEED
UniProt Q06831: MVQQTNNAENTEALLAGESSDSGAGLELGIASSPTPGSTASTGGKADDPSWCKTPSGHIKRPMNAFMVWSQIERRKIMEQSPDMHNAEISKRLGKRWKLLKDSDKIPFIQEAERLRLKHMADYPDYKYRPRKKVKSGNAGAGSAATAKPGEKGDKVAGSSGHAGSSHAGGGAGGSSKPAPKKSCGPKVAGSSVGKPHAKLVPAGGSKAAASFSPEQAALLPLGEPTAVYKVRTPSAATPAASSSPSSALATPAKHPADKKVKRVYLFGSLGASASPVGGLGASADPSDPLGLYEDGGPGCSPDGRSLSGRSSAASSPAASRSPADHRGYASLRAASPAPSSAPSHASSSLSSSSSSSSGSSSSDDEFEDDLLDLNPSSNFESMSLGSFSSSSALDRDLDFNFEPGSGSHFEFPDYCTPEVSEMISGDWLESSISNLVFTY
UniProt Q8BFV2: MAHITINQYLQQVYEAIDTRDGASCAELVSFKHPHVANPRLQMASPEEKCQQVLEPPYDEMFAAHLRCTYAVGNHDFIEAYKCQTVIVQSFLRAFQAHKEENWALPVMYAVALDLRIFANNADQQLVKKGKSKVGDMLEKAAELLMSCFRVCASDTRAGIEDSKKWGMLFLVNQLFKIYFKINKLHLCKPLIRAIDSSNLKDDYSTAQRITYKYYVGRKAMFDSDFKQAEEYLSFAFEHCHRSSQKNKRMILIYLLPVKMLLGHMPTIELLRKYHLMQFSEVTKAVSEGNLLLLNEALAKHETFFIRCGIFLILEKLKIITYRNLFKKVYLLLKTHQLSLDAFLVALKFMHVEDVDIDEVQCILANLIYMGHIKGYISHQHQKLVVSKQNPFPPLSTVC

The results in this text go back to publication PMC10706632.

B1: Tpt1 (protein, UniProt P63028 1-172)
chain: MIIYRDLISHDELFSDIYKIREIADGLCLEVEGKMVSRTEGAIDDSLIGGNASAEGPEGEGTESTVVTGVDIVMNHHLQETSFTKEAYKKYIKDYMKSLKGKLEEQKPERVKPFMTGAAEQIKHILANFNNYQFFIGENMNPDGMVALLDYREDGVTPFMIFFKDGLEMEKC
B2: Glyr1 (protein, UniProt Q922P9 1-546)
chain: MAAVSLRLGDLVWGKLGRYPPWPGKIVNPPKDLKKPRGKKCFFVKFFGTEDHAWIKVEQLKPYHAHKEEMIKINKGKRFQQAVDAVEEFLRRAKGKDQTSSHTSADDKNRRNSSEERSRPNSGDEKRKLSLSEGKVKKNMGEGKKRVTSGSADRGSKCLKRAQEQSPRKRGRPPKDEKDLTIPESSTVKGMMAGPMAAFKWQPTATEPVKDADPHFHHFLLSQTEKPAVCYQAITKKLKICEEETGSTSIQAADSTAVNGSITPTDKKIGFLGLGLMGSGIVSNLLKMGHTVTVWNRTAEKEGARLGRTPAEVVSTCDITFACVSDPKAAKDLVLGPSGVLQGIRPGKCYVDMSTVDADTVTELAQVIVSRGGRFLEAPVSGNQQLSNDGMLVILAAGDRGLYEDCSSCFQAMGKTSFFLGEVGNAAKMMLIVNMVQGSFMATIAEGLTLAQVTGQSQQTLLDILNQGQLASIFLDQKCQNILQGNFKPDFYLKYIQKDLRLAIALGDAVNHPTPMAAAANEVYKRAKALDQSDNDMSAVYRAYIH
B3: Cask (protein, UniProt O70589 1-926)
chain: MADDDVLFEDVYELCEVIGKGPFSVVRRCINRETGQQFAVKIVDVAKFTSSPGLSTEDLKREASICHMLKHPHIVELLETYSSDGMLYMVFEFMDGADLCFEIVKRADAGFVYSEAVASHYMRQILEALRYCHDNNIIHRDVKPHCVLLASKENSAPVKLGGFGVAIQLGESGLVAGGRVGTPHFMAPEVVKREPYGKPVDVWGCGVILFILLSGCLPFYGTKERLFEGIIKGKYKMNPRQWSHISESAKDLVRRMLMLDPAERITVYEALNHPWLKERDRYAYKIHLPETVEQLRKFNARRKLKGAVLAAVSSHKFNSFYGDPPEELPDFSEDPTSSGLLAAERAVSQVLDSLEEIHALTDCSEKDLDFLHSVFQDQHLHTLLDLYDKINTKSSPQIRNPPSDAVQRAKEVLEEISCYPENNDAKELKRILTQPHFMALLQTHDVVAHEVYSDEALRVTPPPTSPYLNGDSPESANGDMDMENVTRVRLVQFQKNTDEPMGITLKMNELNHCIVARIMHGGMIHRQGTLHVGDEIREINGISVANQTVEQLQKMLREMRGSITFKIVPSYRTQSSSCERDSPSTSRQSPANGHSSTNNSVSDLPSTTQPKGRQIYVRAQFEYDPAKDDLIPCKEAGIRFRVGDIIQIISKDDHNWWQGKLENSKNGTAGLIPSPELQEWRVACIAMEKTKQEQQASCTWFGKKKKQYKDKYLAKHNAVFDQLDLVTYEEVVKLPAFKRKTLVLLGAHGVGRRHIKNTLITKHPDRFAYPIPHTTRPPKKDEENGKNYYFVSHDQMMQDISNNEYLEYGSHEDAMYGTKLETIRKIHEQGLIAILDVEPQALKVLRTAEFAPFVVFIAAPTITPGLNEDESLQRLQKESDVLQRTYAHYFDLTIINNEIDETIRHLEEAVELVCTAPQWVPVSWVY
B4: Rag1 (protein, UniProt P15919 1-1040)
chain: MAASLPSTLSFSSAPDEIQHPQIKFSEWKFKLFRVRSFEKAPEEAQKEKDSSEGKPYLEQSPVVPEKPGGQNSILTQRALKLHPKFSKKFHADGKSSDKAVHQARLRHFCRICGNRFKSDGHSRRYPVHGPVDAKTQSLFRKKEKRVTSWPDLIARIFRIDVKADVDSIHPTEFCHDCWSIMHRKFSSSHSQVYFPRKVTVEWHPHTPSCDICFTAHRGLKRKRHQPNVQLSKKLKTVLNHARRDRRKRTQARVSSKEVLKKISNCSKIHLSTKLLAVDFPAHFVKSISCQICEHILADPVETSCKHLFCRICILRCLKVMGSYCPSCRYPCFPTDLESPVKSFLNILNSLMVKCPAQDCNEEVSLEKYNHHVSSHKESKETLVHINKGGRPRQHLLSLTRRAQKHRLRELKIQVKEFADKEEGGDVKAVCLTLFLLALRARNEHRQADELEAIMQGRGSGLQPAVCLAIRVNTFLSCSQYHKMYRTVKAITGRQIFQPLHALRNAEKVLLPGYHPFEWQPPLKNVSSRTDVGIIDGLSGLASSVDEYPVDTIAKRFRYDSALVSALMDMEEDILEGMRSQDLDDYLNGPFTVVVKESCDGMGDVSEKHGSGPAVPEKAVRFSFTVMRITIEHGSQNVKVFEEPKPNSELCCKPLCLMLADESDHETLTAILSPLIAEREAMKSSELTLEMGGIPRTFKFIFRGTGYDEKLVREVEGLEASGSVYICTLCDTTRLEASQNLVFHSITRSHAENLQRYEVWRSNPYHESVEELRDRVKGVSAKPFIETVPSIDALHCDIGNAAEFYKIFQLEIGEVYKHPNASKEERKRWQATLDKHLRKRMNLKPIMRMNGNFARKLMTQETVDAVCELIPSEERHEALRELMDLYLKMKPVWRSSCPAKECPESLCQYSFNSQRFAELLSTKFKYRYEGKITNYFHKTLAHVPEIIERDGSIGAWASEGNESGNKLFRRFRKMNARQSKCYEMEDVLKHHWLYTSKYLQKFMNAHNALKSSGFTMNSKETLGDPLGIEDSLESQDSMEF
B5: Mri1 (enzyme, UniProt Q9CQT1 1-369)
chain: MTLEAIRYSPGSLQILDQLQLPEHCHYEALSSVQQASEAIRAMKVRGAPAIALVGCLSLAVELRAGAGGPGLAALVAFVRDQLRLLVAARPTAVNMARAARDLGQVAAQEAEREGATEETVRERVIRFAEDMLEKDLKDNRSIGDLGARHLLEQTNPRGGKVTVLTHCNTGALATAGYGTALGVIRSLHEMGRLEHTFCTETRPYNQGARLTAFELVYEQIPATLITDSMAAAAMAHRGVSAVVVGADRVVANGDTANKIGTYQLAIVAKHHGVPFYVAAPSSSCDLHLETGKEIVIEERPSQELTDLNGVRIAAQGIRVWNPAFDVTPHELITGGIITELGVFAPEELRGALSASVFSEGQTLDSPWV
B6: Hmgb2 (protein, UniProt P30681 1-210)
chain: MGKGDPNKPRGKMSSYAFFVQTCREEHKKKHPDSSVNFAEFSKKCSERWKTMSAKEKSKFEDLAKSDKARYDREMKNYVPPKGDKKGKKKDPNAPKRPPSAFFLFCSENRPKIKIEHPGLSIGDTAKKLGEMWSEQSAKDKQPYEQKAAKLKEKYEKDIAAYRAKGKSEAGKKGPGRPTGSKKKNEPEDEEEEEEEEEEEDDEEEEEDEE
B7: Cc2d1b (protein, UniProt Q8BRN9 1-848)
chain: MPGPRPRKGPKTSGQGAETAKQLGLFVEFNPEDMLLGVDETEDDGDLEAELLALTGETASRSRKPAPKGQAPLPMAHIEKLAADCMRDVEEDEEEEGLEDDADLLTELQEVLGEDEEAGLLDGSEAASPDLCEEKTWDNTELPVEQAACQQAVPAAAQAGGPRGLQALLEERIRNYREAAASAKEAGEAAKARRCERGLKTLQSQLATVRKGGKICEDEIPPPVALGKRPPAPQERAIKNPEIDSPGPCAMEPGNLSQPESSLPAIAPLPDSDPDPQALLLARQREYKAAALDAKRAGDLDRARELMRIGKRFGTVLEALEKGQPVDLSGMPPAPADLKALPQASKASSATQGLSPAVEQMQPVMASDLPATPVAPAEPTTVLDALQQRLNKYREAGIQARANGDERKARMHDRIAKQYQDAVRAHQAGQKVDFAELPVPPGFPPIPGLEPRKGSEQDSVAATLATAQKLASEDAALVDDDEESDTPAQAPLAKKPAQTLVSPSHLLTEPKASSSKESLSPSVREQVTLLEARKLQYQRAALQAKRRQDLEQAKSHLRVAKSLEAQIIQARAGQPIDLSKVPSPLTDEEGDFILIHHEDLRLSQKAEEVYAQLQKMLQEQQAKCLLFSKQYMHQGNVAETTRFERLAEDRKKQLEILQLAQAQGLDPPSHHFELKTFQTVRIFSELNSTEMHLIIVRGMNLPAPPGVTPDDLDAFVRFEFHYPNSDQAQKSKTAVVKNTNSPEFEQVFKLNINRNHRGFRRVIQSKGIKFEIFHKGSFFRSDKLVGTAHLKLERLEKECEIREIMEVLDGRKPTGGKLEVKVRLREPLSSQDVQTVTENWLVLEPRGL
B8: Eny2 (protein, UniProt Q9JIX0 1-101)
chain: MVVSKMNKDAQMRAAINQKLIETGERERLKELLRAKLIECGWKDQLKAHCKEVIKEKGLEHVTVDDLVAEITPKGRALVPDSVKKELLQRIRTFLAQHASL

For the first experiment, the target named is phospho-Tpr (P-Tpr) (mouse (endogenous in NSPCs)) (UniProt F6ZDS4). Kind of experiment: affinity purification with mass spectrometry; endogenous immunoprecipitation from SVZ-derived mouse NSPC lysates with Tpr or P-Tpr as bait (antibody on protein A Sepharose, 4 h, 4 °C; lysis buffer 1% Nonidet P-40, 150 mM NaCl, 1 mM EDTA, 20 mM Tris HCl pH 8.0); S-Trap, Q-Exactive Plus, MaxQuant label-free quantification; cut off log2 FC ≥ 1.0.
“cyclin-dependent kinase 1 (Cdk1) (from UniProt P11440 1-297) (enzyme)”: the binding entry was “binds”.

Consider Bclaf1 (from UniProt Q8K019 1-919), for which the binding result is recorded as “binds”.

Consider Atp6v0c (from UniProt P63082 1-155), for which the binding result is “binds”.

The target of the next experiment is translocated promoter region (Tpr) (mouse (endogenous in NSPCs)) (UniProt F6ZDS4). Described as above.
For the molecule CBX2 (from UniProt P30658 1-519), the binding entry is reported as “binds”.

Consider Arid1a (from UniProt A2BH40 1-2283), for which the binding result is “binds”.

With RuvBl1 (from UniProt P60122 1-456), the binding entry is recorded as “binds”.

In the case of Otx1 (from UniProt P80205 1-355), the binding entry is listed as “binds”.

In the case of Sox2 (from UniProt P48432 1-319), the binding entry is listed as “binds”.

Take Brg1 (from UniProt Q3TKT4 1-1613): the binding entry is reported as “binds”.

As for Sox4 (from UniProt Q06831 1-440), the binding result is listed as “binds”.

With PCID2 (from UniProt Q8BFV2 1-399), the binding result is listed as “binds”.

The target of the next experiment is phospho-Tpr (P-Tpr) (mouse (endogenous in NSPCs)) (UniProt F6ZDS4). The experiment is described as above. This is another data set of the same source.
B1: the binding entry is on record as “binds”.

For the molecule B2, the binding entry was “binds”.

Regarding B3, the binding result is recorded as “binds”.

As to B4, the binding entry was “binds”.

Take B5: the binding entry is given as “binds”.

In the case of B6, the binding result was “binds”.

As to B7, the binding entry is given as “binds”.

For the next experiment, the target named is translocated promoter region (Tpr) (mouse (endogenous in NSPCs)) (UniProt F6ZDS4). The experiment is described as above. The source holds these as a separate data set.
Take B8: the binding entry is reported as “binds”.
